From PubChem BioAssay AID248 (DTP/NCI, 2004)
The list is a part of this screen's results and no random one: it is rich in T/C values a quarter to a half above the control, in often repeated tests (any T/C) and in doses without a T/C. Further doses and runs are listed elsewhere. T/C gives the treated animals as a percentage of the vehicle group. Some doses have a count of surviving animals in place of a T/C: the source holds a T/C of zero for them, seemingly a mark for toxic or unscored doses. Some doses without a T/C left all or most animals alive at the check, yet need not have been tolerated: survival well below the control is almost never listed, so the zero probably covers shortened survival too. Counts of survivors are from the toxicity check (mostly the fifth day) where no day follows; animals may have died later. Schedule codes are those of the source, taken here to give the interval after Q, in days (D) or hours (H), and the number of doses after X. Some schedule codes hold Z or #, which are not explained here. Where survival is the endpoint, this PubChem deposit counts one and a half times the control or more as active, and values a quarter to a half above the control carry no call in these data; other NCI protocols may use other cut-offs. Some doses were run more than once; the results are listed from low to high. Some T/C values carry the count of animals alive at the toxicity check (mostly the fifth day); where none is given, no animal had died by that day.

Test system: L1210 leukemia ip in BDF1 mice, survival T/C
Assay: NCI In Vivo Anticancer Drug Screen. Data for tumor model L1210 Leukemia (intraperitoneal) in B6D2F1 (BDF1) mice
Conditions: T/C endpoint: mean survival time, higher T/C = longer survival
[1] = dose: 100.0 mg/kg/injection, schedule: Q01DX009 (ip), vehicle: saline with Tween-80
[2] = dose: 200.0 mg/kg/injection, schedule: Q04DX003 (ip), vehicle: saline with Tween-80
[3] = dose: 400.0 mg/kg/injection, schedule: Q04DX003 (ip), vehicle: saline with Tween-80
[4] = dose: 50.0 mg/kg/injection, schedule: Q01DX009 (ip), vehicle: saline with Tween-80
[5] = dose: 75.0 mg/kg/injection, schedule: Q01DX009 (ip), vehicle: saline
[6] = dose: 100.0 mg/kg/injection, schedule: Q04DX003 (ip), vehicle: saline
[7] = dose: 200.0 mg/kg/injection, schedule: Q04DX003 (ip), vehicle: saline
[8] = dose: 400.0 mg/kg/injection, schedule: Q04DX003 (ip), vehicle: saline
[9] = dose: 200.0 mg/kg/injection, schedule: Q04DX003 (ip), vehicle: Klucel (hydroxypropylcellulose) (HPC)
[10] = dose: 200.0 mg/kg/injection, schedule: Q01DX009 (ip), vehicle: Klucel (hydroxypropylcellulose) (HPC)
[11] = dose: 400.0 mg/kg/injection, schedule: Q01DX001 (ip), vehicle: saline

SMILES: Nc1ncnc2c1ncn2C(C=O)OC(C=O)CO (centres undefined)
- T/C (dose: 8.75 mg/kg/injection, schedule: Q01DX009 (ip), vehicle: water): 144 % of control
- T/C (dose: 20.0 mg/kg/injection, schedule: Q01DX Z (ip), vehicle: carboxymethylcellulose (CMC)): 125 % of control
- T/C (dose: 30.0 mg/kg/injection, schedule: Q01DX Z (ip), vehicle: carboxymethylcellulose (CMC)): 130 and 137 % of control
- T/C (dose: 35.0 mg/kg/injection, schedule: Q01DX009 (ip), vehicle: water): 126 % of control
- T/C (dose: 45.0 mg/kg/injection, schedule: Q01DX Z (ip), vehicle: carboxymethylcellulose (CMC)): 149 % of control
- survivor count (dose: 67.5 mg/kg/injection, schedule: Q01DX Z (ip), vehicle: carboxymethylcellulose (CMC)): 5 of 6
- survivor count (dose: 101.0 mg/kg/injection, schedule: Q01DX Z (ip), vehicle: carboxymethylcellulose (CMC)): 6 of 6
- survivor count (dose: 152.0 mg/kg/injection, schedule: Q01DX Z (ip), vehicle: carboxymethylcellulose (CMC)): 3 of 6
- survivor count (dose: 216.0 mg/kg/injection, schedule: Q01DX Z (ip), vehicle: carboxymethylcellulose (CMC)): 0 of 6
- survivor count (dose: 267.0 mg/kg/injection, schedule: Q01DX009 (oral), vehicle: saline): 1 of 6
- survivor count (dose: 308.0 mg/kg/injection, schedule: Q01DX Z (ip), vehicle: carboxymethylcellulose (CMC)): 0 of 6
- survivor count (dose: 400.0 mg/kg/injection, schedule: Q01DX009 (oral), vehicle: saline): 0 of 6
- survivor count (dose: 600.0 mg/kg/injection, schedule: Q01DX009 (oral), vehicle: saline): 0 of 6

SMILES: CC1=CC(=O)c2[nH]ncc2C1=O
- survivor count (dose: 20.0 mg/kg/injection, schedule: Q01DX001 (ip), vehicle: water): 0 of 4
- survivor count (dose: 40.0 mg/kg/injection, schedule: Q01DX001 (ip), vehicle: water): 0 of 4
- survivor count (dose: 80.0 mg/kg/injection, schedule: Q01DX001 (ip), vehicle: water): 0 of 4

SMILES: CCCCCCCCSCCCCCCCCCCCSCCCCCCCC
- survivor count (dose: 400.0 mg/kg/injection, schedule: Q01DX001 (ip), vehicle: Klucel (hydroxypropylcellulose) (HPC)): 6 of 6

SMILES: Clc1ccc(C(c2cccs2)N2CCNCC2)cc1 (centres undefined)
- survivor count [1]: 3 of 6
- survivor count [2]: 0 of 6
- survivor count [3]: 0 of 6

SMILES: CCN(C)N=Nc1cccnc1
- T/C (dose: 33.0 mg/kg/injection, schedule: Q01DX009 (ip), vehicle: saline): 131 % of control
- T/C [4]: 141 % of control
- survivor count [5]: 2 of 6
- survivor count (dose: 113.0 mg/kg/injection, schedule: Q01DX009 (ip), vehicle: saline): 0 of 6

SMILES: O=[N+]([O-])C(CO)(CO)CC(F)(F)F
- survivor count [6]: 0 of 6
- survivor count [7]: 0 of 6
- survivor count [8]: 0 of 6

SMILES: CN(C)CCOC(=O)c1cccc(CCl)c1
- T/C (dose: 100.0 mg/kg/injection, schedule: Q04DX002 (ip), vehicle: saline): 129 % of control

SMILES: OCC1OC(n2ccc3c2ncn2nnnc32)C(O)C1O (centres undefined)
- survivor count (dose: 50.0 mg/kg/injection, schedule: Q01DX009 (ip), vehicle: saline): 5 of 6
- survivor count [5]: 5 of 6
- survivor count [6]: 6 of 6
- survivor count [7]: 6 of 6
- survivor count [8]: 1 of 6

SMILES: O=C1C(Br)=Cc2cccc3cccc1c23
- survivor count [9]: 6 of 6

SMILES: CCCCCC(C)NCC(C)(C)O (centres undefined)
- survivor count (dose: 150.0 mg/kg/injection, schedule: Q01DX001 (ip), vehicle: acid diluted with saline): 3 of 6
- survivor count (dose: 300.0 mg/kg/injection, schedule: Q01DX001 (ip), vehicle: acid diluted with saline): 0 of 6

SMILES: O=C1CN=C(c2ccccn2)c2cc(Cl)ccc2N1
- survivor count (dose: 600.0 mg/kg/injection, schedule: Q01DX009 (ip), vehicle: saline): 0 of 10

SMILES: Oc1cc(O)c(CN(CCCl)CCCl)cc1CN(CCCl)CCCl
- T/C (dose: 12.5 mg/kg/injection, schedule: Q01DX009 (ip), vehicle: saline): 125 % of control
- survivor count (dose: 37.5 mg/kg/injection, schedule: Q01DX009 (ip), vehicle: saline): 6 of 6
- survivor count [5]: 5 of 6
- survivor count [1]: 5 of 6
- survivor count (dose: 150.0 mg/kg/injection, schedule: Q01DX009 (ip), vehicle: saline): 2 of 6
- survivor count [7]: 3 of 6
- survivor count [8]: 3 of 6

SMILES: N#CCCNC(=S)Nc1ccccc1
- survivor count (dose: 100.0 mg/kg/injection, schedule: Q01DX Z (ip), vehicle: methylcellulose (MC)): 6 of 6
- survivor count (dose: 200.0 mg/kg/injection, schedule: Q01DX Z (ip), vehicle: methylcellulose (MC)): 5 of 6

SMILES: N#CC(C#N)=Cc1cccc([N+](=O)[O-])c1
- survivor count (dose: 200.0 mg/kg/injection, schedule: Q01DX001 (ip), vehicle: carboxymethylcellulose (CMC)): 1 of 4
- survivor count [10]: 1 of 6
- survivor count [9]: 2 of 6
- survivor count (dose: 400.0 mg/kg/injection, schedule: Q01DX001 (ip), vehicle: carboxymethylcellulose (CMC)): 0 of 4
- survivor count (dose: 400.0 mg/kg/injection, schedule: Q01DX009 (ip), vehicle: Klucel (hydroxypropylcellulose) (HPC)): 1 of 6

SMILES: O=C(O)C1CCC2(CCCCC2)CC1
- survivor count (dose: 400.0 mg/kg/injection, schedule: Q01DX009 (ip), vehicle: water): 3 of 6

SMILES: CCN(CC)C(=O)c1ccc([N+](=O)[O-])cc1
- survivor count (dose: 400.0 mg/kg/injection, schedule: Q04DX003 (ip), vehicle: Klucel (hydroxypropylcellulose) (HPC)): 3 of 6

SMILES: CN=NNc1ccccc1
- T/C (dose: 28.0 mg/kg/injection, schedule: Q01DX009 (ip), vehicle: saline): 134 % of control
- T/C (dose: 42.0 mg/kg/injection, schedule: Q01DX009 (ip), vehicle: saline): 147 % of control
- T/C (dose: 75.0 mg/kg/injection, schedule: Q04DX003 (ip), vehicle: saline with Tween-80): 125 % of control
- T/C (dose: 100.0 mg/kg/injection, schedule: Q04DX003 (ip), vehicle: saline with Tween-80): 145 % of control
- T/C (dose: 150.0 mg/kg/injection, schedule: Q04DX003 (ip), vehicle: saline with Tween-80): 141 % of control
- T/C (dose: 225.0 mg/kg/injection, schedule: Q04DX003 (ip), vehicle: saline with Tween-80): 129 % of control

SMILES: CSC(=S)N/N=C(\C)c1ccccn1
- survivor count [2]: 3 of 3
- survivor count [3]: 1 of 3

SMILES: O=C(O)C(CSC(c1ccccc1)(c1ccccc1)c1ccccc1)N=Cc1ccccc1O (centres undefined)
- T/C (dose: 178.0 mg/kg/injection, schedule: Q01DX001 (ip), vehicle: saline): 133 % of control
- T/C [11]: 145 % of control [5 of 6 alive]

SMILES: CC(C)CC(N)C(=O)NCCCCCCNCCCCCCNC(=O)C(N)CC(C)C (centres undefined)
- survivor count [11]: 0 of 4

SMILES: CCOc1ccc(NC(=O)Nc2cccc(Cl)c2)cc1
- survivor count [10]: 3 of 6

SMILES: CCCCCCCCCCOP(=S)(N1CC1)N1CC1
- T/C (dose: 10.0 mg/kg/injection, schedule: Q01DX Z (ip), vehicle: carboxymethylcellulose (CMC)): 136 % of control
- survivor count (dose: 80.0 mg/kg/injection, schedule: Q01DX Z (ip), vehicle: carboxymethylcellulose (CMC)): 6 of 6
- survivor count (dose: 160.0 mg/kg/injection, schedule: Q01DX Z (ip), vehicle: carboxymethylcellulose (CMC)): 5 of 6

SMILES: O=C(OC/C=C/CC(Cl)(Cl)Cl)C(Cl)(Cl)Cl
- survivor count (dose: 400.0 mg/kg/injection, schedule: Q01DX009 (ip), vehicle: acetone): 1 of 6

SMILES: c1ccc2c(c1)ccc1cc3cc(NCCCCNc4ccc5nc6c(ccc7ccccc76)cc5c4)ccc3nc12
- survivor count (dose: 25.0 mg/kg/injection, schedule: Q01DX009 (ip), vehicle: saline with Tween-80): 3 of 3
- survivor count [4]: 0 of 3
- survivor count [1]: 0 of 3
- survivor count (dose: 200.0 mg/kg/injection, schedule: Q01DX009 (ip), vehicle: saline with Tween-80): 0 of 3

SMILES: CC(=O)NCc1ccc([N+](=O)[O-])cc1
- survivor count (dose: 400.0 mg/kg/injection, schedule: Q01DX009 (ip), vehicle: saline with Tween-80): 2 of 6
